Drawing on paper doi:10.1101/2021.01.07.425702, this text covers binding for five molecules.

By UniProt entry, the sequences of proteins in these tests, tags left out. Residues count along the entry.
UniProt O95166: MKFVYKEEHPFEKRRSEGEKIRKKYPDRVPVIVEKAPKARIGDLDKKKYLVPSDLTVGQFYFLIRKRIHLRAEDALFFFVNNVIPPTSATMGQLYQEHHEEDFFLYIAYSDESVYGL
UniProt P60520: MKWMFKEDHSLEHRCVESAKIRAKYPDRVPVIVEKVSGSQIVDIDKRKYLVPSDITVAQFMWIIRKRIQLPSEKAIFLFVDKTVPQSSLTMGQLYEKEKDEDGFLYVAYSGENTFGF
UniProt Q9BXW4, residues 1-126: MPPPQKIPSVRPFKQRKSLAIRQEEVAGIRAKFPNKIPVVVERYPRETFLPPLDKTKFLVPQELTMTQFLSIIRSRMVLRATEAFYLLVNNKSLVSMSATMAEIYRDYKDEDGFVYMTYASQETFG

No constants are given. Whether binding was seen depends on the method and setting. For some assays here: In cells and extracts the contact can be indirect. Some binding calls cover weakened binding; strength is not graded here.

The target in one test is Flag-TAX1BP1 wild type (UniProt Q86VP1). Put plainly: co-IP.
For test [1], the target named is T1, MAVS, endogenous in MEFs (mouse (endogenous in MEFs)), Q8VCF0.
T1 chain: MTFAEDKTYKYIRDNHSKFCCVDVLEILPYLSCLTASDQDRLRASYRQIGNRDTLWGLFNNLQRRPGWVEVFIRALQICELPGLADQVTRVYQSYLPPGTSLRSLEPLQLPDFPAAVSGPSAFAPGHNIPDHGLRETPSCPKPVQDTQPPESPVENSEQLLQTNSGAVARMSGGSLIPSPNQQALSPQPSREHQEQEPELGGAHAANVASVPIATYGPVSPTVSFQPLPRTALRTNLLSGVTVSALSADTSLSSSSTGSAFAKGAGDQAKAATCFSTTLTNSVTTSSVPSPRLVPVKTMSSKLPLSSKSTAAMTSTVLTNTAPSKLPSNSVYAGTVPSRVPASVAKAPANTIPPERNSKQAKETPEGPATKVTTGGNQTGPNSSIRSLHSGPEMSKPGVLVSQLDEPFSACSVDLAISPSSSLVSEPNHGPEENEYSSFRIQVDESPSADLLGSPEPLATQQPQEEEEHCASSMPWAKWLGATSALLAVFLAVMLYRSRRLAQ
Put plainly: SDD-AGE. The following applies: remark: other sources report otherwise.

In the case of “V5-tagged GABARAP (from UniProt O95166 1-117)”, in the test with Flag-TAX1BP1 wild type, the binding entry is given as “binds”.

As for “V5-tagged GABARAPL2 (GATE16) (from UniProt P60520 1-117)”, in the test with Flag-TAX1BP1 wild type, the binding entry is listed as “binds weakly”. As to “V5-tagged MAP1LC3A (from UniProt Q9H492 1-121)”, the binding result with Flag-TAX1BP1 wild type is reported as “binds”. On the same count and under the same terms, the entry for “V5-tagged MAP1LC3C (from UniProt Q9BXW4 1-126)” is “binds”.

B1: MAVS, endogenous in MEFs, Q8VCF0 1-503 (protein)
chain: T1 chain
In the case of B1, the binding result in test [1] is listed as “binds”.
